Experimental findings from PMC6065180, “An allosteric propofol-binding site in kinesin disrupts kinesin-mediated processive movement on microtubules” (The Journal of Biological Chemistry, 2018) are described below.

The chains behind the UniProt entries cited, without tags or fusion partners. Where a name states a change or a piece, a line headed by the entry shows the natural chain unless it says otherwise. A line that says so, or that is headed by a name, gives the form on record, which may keep a tag or linker.
KIF3A-AHD (mouse KIF3A(Met1-Glu376) with acidic synthetic heterodimerization helix and StrepII tag) (P28741, form named): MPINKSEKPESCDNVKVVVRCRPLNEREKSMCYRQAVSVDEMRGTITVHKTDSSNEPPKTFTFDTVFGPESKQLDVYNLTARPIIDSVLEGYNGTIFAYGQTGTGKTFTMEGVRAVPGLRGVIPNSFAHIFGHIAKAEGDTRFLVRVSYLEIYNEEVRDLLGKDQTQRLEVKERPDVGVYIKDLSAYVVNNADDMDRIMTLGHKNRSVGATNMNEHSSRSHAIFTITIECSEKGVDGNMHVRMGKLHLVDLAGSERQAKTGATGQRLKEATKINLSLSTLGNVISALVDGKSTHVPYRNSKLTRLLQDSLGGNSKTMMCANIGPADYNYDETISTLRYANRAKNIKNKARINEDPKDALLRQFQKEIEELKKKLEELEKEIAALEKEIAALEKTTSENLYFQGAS
KIF3A-EB1 (mouse KIF3A(Met1-Leu374)-EB1 with StrepII tag) (P28741, form named): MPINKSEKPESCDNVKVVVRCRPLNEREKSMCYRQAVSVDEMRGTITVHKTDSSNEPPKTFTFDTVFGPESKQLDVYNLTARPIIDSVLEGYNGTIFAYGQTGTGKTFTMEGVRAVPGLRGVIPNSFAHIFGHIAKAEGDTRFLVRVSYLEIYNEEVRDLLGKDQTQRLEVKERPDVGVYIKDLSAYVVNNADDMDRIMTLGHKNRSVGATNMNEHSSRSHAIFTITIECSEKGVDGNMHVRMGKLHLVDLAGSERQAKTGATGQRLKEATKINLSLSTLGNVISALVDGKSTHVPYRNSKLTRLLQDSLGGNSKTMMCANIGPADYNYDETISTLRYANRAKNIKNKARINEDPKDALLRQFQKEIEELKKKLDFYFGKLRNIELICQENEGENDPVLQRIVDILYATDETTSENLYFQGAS

For assay [1], the target named is KIF3A-AHD (mouse KIF3A(Met1-Glu376) with acidic synthetic heterodimerization helix and StrepII tag) (mouse) (UniProt P28741). The assay is described as follows: sequential affinity co-purification; the two chains co-expressed in E. coli; clarified lysate on HisTrap Ni-NTA (His8 chain), then the pooled fractions on StrepTactin (StrepII chain); fractions with a 1:1 ratio of the two polypeptides on SDS-PAGE pooled.

Assay [2] concerns the target KIF3A-EB1 (mouse KIF3A(Met1-Leu374)-EB1 with StrepII tag) (mouse | not stated) (UniProt P28741). The assay is described as above.

These are yes or no findings as the source states them, for the method shown. Some entries that bind do so weakly or less than the wild type. Where a sequence is shown, tags or fusion partners need not be part of it.

B1: KIF3B-BHD (mouse KIF3B(Met1-Lys371) with basic synthetic heterodimerization helix and His8 tag) (domain or fragment, UniProt Q61771 1-371)
chain: MSKLKSSESVRVVVRCRPMNGKEKAASYDKVVDVDVKLGQVSVKNPKGTSHEMPKTFTFDAVYDWNAKQFELYDETFRPLVDSVLQGFNGTIFAYGQTGTGKTYTMEGVRGDPEKRGVIPNSFDHIFTHISRSQNQQYLVRASYLEIYQEEIRDLLSKDQTKRLELKERPDTGVYVKDLSSFVTKSVKEIEHVMNVGNQNRSVGATNMNEHSSRSHAIFVITIECSEVGLDGENHIRVGKLNLVDLAGSERQAKTGAQGERLKEATKINLSLSALGNVISALVDGKSTHIPYRDSKLTRLLQDSLGGNAKTVMVANVGPASYNVEETLTTLRYANRAKNIKNKPRVNEDPKDALLREFQEEIARLKAQLEKLKEKIAALKEKIAALKETTSENLYFQGAS
As to B1, the binding result in assay [1] is recorded as “binds”.

B2: KIF3C (mouse KIF3C(Met1-Leu396)-EB1 with His8 tag), single chain (domain or fragment, UniProt O35066 1-396)
chain: MASKTKASEALKVVARCRPLSRKEEAAGHEQILTMDVKLGQVTLRNPRAAPGELPKTFTFDAVYDASSKQADLYDETVRPLIDSVLQGFNGTVFAYGQTGTGKTYTMQGTWVEPELRGVIPNAFEHIFTHISRSQNQQYLVRASYLEIYQEEIRDLLSKEPGKRLELKENPETGVYIKDLSSFVTKNVKEIEHVMNLGNQARAVGSTHMNEVSSRSHAIFVITVECSERGSDGQDHIRVGKLNLVDLAGSERQNKAGPNAAGGPATQPTAGGGSGSGSASGSASSGERPKEASKINLSLSALGNVIAALAGNRSTHIPYRDSKLTRLLQDSLGGNAKTIMVATLGPASHSYDESLSTLRFANRAKNIKNKPRVNEDPKDTLLREFQEEIARLKAQLDFYFGKLRNIELICQENEGENDPVLQRIVDILYATDETTSENLYFQGAS
Take B2: the binding result in assay [2] was “binds”.
